Laboratory results as given in patent publication US20040044006A1, “Methods of use of quinolone compounds against pneumococcal and haemophilus bacteria” (priority 1999, published 2004).
The name of at least one read-out is uncertain.

System: penicillin susceptible and resistant pneumococcal strains (2 quinolone resistant)
Experiment: Time-kill testing of 12 pneumococcal strains
Assay type: cell-based, Streptococcus pneumoniae
Conditions: of 12 strains (macrolides 7)
Method in brief: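 Pneumococci at 5×10^5–5×10^6 cfu/ml were exposed to doubling antibiotic concentrations in cation-adjusted Mueller-Hinton broth + 5% lysed horse blood at 35 °C with shaking. Viable counts (detection limit 300 cfu/ml) were taken at 0, 3, 6, 12 and 24 h.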

With `CO/N=C(\C(=O)N[C@@H]1C(=O)N2C(C(=O)O)=C(COC(N)=O)CS[C@H]12)c1ccco1` [Cefuroxime, cefuroxime] the “No. strains −1 Log10 cfu/ml lower than 0 h” value (3 h, 0.25 × MIC) was 0 No. strains, the “No. strains −2 Log10 cfu/ml lower than 0 h” value (3 h, 0.25 × MIC) was 0 No. strains and the “No. strains −3 Log10 cfu/ml lower than 0 h” value (3 h, 0.25 × MIC) was 0 No. strains. The “No. strains −1 Log10 cfu/ml lower than 0 h” value (3 h, 0.5 × MIC) was 3 No. strains, the “No. strains −2 Log10 cfu/ml lower than 0 h” value (3 h, 0.5 × MIC) was 0 No. strains and the “No. strains −3 Log10 cfu/ml lower than 0 h” value (3 h, 0.5 × MIC) was 0 No. strains. The “No. strains −1 Log10 cfu/ml lower than 0 h” value (3 h, 2 × MIC) was 7 No. strains, the “No. strains −2 Log10 cfu/ml lower than 0 h” value (3 h, 2 × MIC) was 1 No. strains and the “No. strains −3 Log10 cfu/ml lower than 0 h” value (3 h, 2 × MIC) was 0 No. strains. For the same molecule, the “No. strains −1 Log10 cfu/ml lower than 0 h” value (3 h, 4 × MIC) was 9 No. strains, the “No. strains −2 Log10 cfu/ml lower than 0 h” value (3 h, 4 × MIC) was 3 No. strains and the “No. strains −3 Log10 cfu/ml lower than 0 h” value (3 h, 4 × MIC) was 0 No. strains. The “No. strains −1 Log10 cfu/ml lower than 0 h” value (3 h, 8 × MIC) was 9 No. strains, the “No. strains −2 Log10 cfu/ml lower than 0 h” value (3 h, 8 × MIC) was 5 No. strains and the “No. strains −3 Log10 cfu/ml lower than 0 h” value (3 h, 8 × MIC) was 0 No. strains. The “No. strains −1 Log10 cfu/ml lower than 0 h” value (3 h, MIC) was 4 No. strains, the “No. strains −2 Log10 cfu/ml lower than 0 h” value (3 h, MIC) was 0 No. strains and the “No. strains −3 Log10 cfu/ml lower than 0 h” value (3 h, MIC) was 0 No. strains. The “No. strains −1 Log10 cfu/ml lower than 0 h” value (6 h, 0.25 × MIC) was 0 No. strains, the “No. strains −2 Log10 cfu/ml lower than 0 h” value (6 h, 0.25 × MIC) was 0 No. strains and the “No. strains −3 Log10 cfu/ml lower than 0 h” value (6 h, 0.25 × MIC) was 0 No. strains. For the same molecule, the “No. strains −1 Log10 cfu/ml lower than 0 h” value (6 h, 0.5 × MIC) was 1 No. strains, the “No. strains −2 Log10 cfu/ml lower than 0 h” value (6 h, 0.5 × MIC) was 0 No. strains and the “No. strains −3 Log10 cfu/ml lower than 0 h” value (6 h, 0.5 × MIC) was 0 No. strains. For the same molecule, the “No. strains −1 Log10 cfu/ml lower than 0 h” value (6 h, 2 × MIC) was 12 No. strains, the “No. strains −2 Log10 cfu/ml lower than 0 h” value (6 h, 2 × MIC) was 8 No. strains and the “No. strains −3 Log10 cfu/ml lower than 0 h” value (6 h, 2 × MIC) was 1 No. strains. The “No. strains −1 Log10 cfu/ml lower than 0 h” value (6 h, 4 × MIC) was 12 No. strains, the “No. strains −2 Log10 cfu/ml lower than 0 h” value (6 h, 4 × MIC) was 11 No. strains and the “No. strains −3 Log10 cfu/ml lower than 0 h” value (6 h, 4 × MIC) was 1 No. strains. For the same molecule, the “No. strains −1 Log10 cfu/ml lower than 0 h” value (6 h, 8 × MIC) was 12 No. strains, the “No. strains −2 Log10 cfu/ml lower than 0 h” value (6 h, 8 × MIC) was 12 No. strains and the “No. strains −3 Log10 cfu/ml lower than 0 h” value (6 h, 8 × MIC) was 4 No. strains. The “No. strains −1 Log10 cfu/ml lower than 0 h” value (6 h, MIC) was 7 No. strains, the “No. strains −2 Log10 cfu/ml lower than 0 h” value (6 h, MIC) was 2 No. strains and the “No. strains −3 Log10 cfu/ml lower than 0 h” value (6 h, MIC) was 0 No. strains. The “No. strains −1 Log10 cfu/ml lower than 0 h” value (12 h, 0.25 × MIC) was 0 No. strains, the “No. strains −2 Log10 cfu/ml lower than 0 h” value (12 h, 0.25 × MIC) was 0 No. strains and the “No. strains −3 Log10 cfu/ml lower than 0 h” value (12 h, 0.25 × MIC) was 0 No. strains. For the same molecule, the “No. strains −1 Log10 cfu/ml lower than 0 h” value (12 h, 0.5 × MIC) was 0 No. strains, the “No. strains −2 Log10 cfu/ml lower than 0 h” value (12 h, 0.5 × MIC) was 0 No. strains and the “No. strains −3 Log10 cfu/ml lower than 0 h” value (12 h, 0.5 × MIC) was 0 No. strains. The “No. strains −1 Log10 cfu/ml lower than 0 h” value (12 h, 2 × MIC) was 12 No. strains, the “No. strains −2 Log10 cfu/ml lower than 0 h” value (12 h, 2 × MIC) was 11 No. strains and the “No. strains −3 Log10 cfu/ml lower than 0 h” value (12 h, 2 × MIC) was 8 No. strains. The “No. strains −1 Log10 cfu/ml lower than 0 h” value (12 h, 4 × MIC) was 12 No. strains, the “No. strains −2 Log10 cfu/ml lower than 0 h” value (12 h, 4 × MIC) was 12 No. strains and the “No. strains −3 Log10 cfu/ml lower than 0 h” value (12 h, 4 × MIC) was 11 No. strains. The “No. strains −1 Log10 cfu/ml lower than 0 h” value (12 h, 8 × MIC) was 12 No. strains, the “No. strains −2 Log10 cfu/ml lower than 0 h” value (12 h, 8 × MIC) was 12 No. strains and the “No. strains −3 Log10 cfu/ml lower than 0 h” value (12 h, 8 × MIC) was 12 No. strains. The “No. strains −1 Log10 cfu/ml lower than 0 h” value (12 h, MIC) was 9 No. strains, the “No. strains −2 Log10 cfu/ml lower than 0 h” value (12 h, MIC) was 7 No. strains and the “No. strains −3 Log10 cfu/ml lower than 0 h” value (12 h, MIC) was 1 No. strains. For the same molecule, the “No. strains −1 Log10 cfu/ml lower than 0 h” value (24 h, 0.25 × MIC) was 0 No. strains, the “No. strains −2 Log10 cfu/ml lower than 0 h” value (24 h, 0.25 × MIC) was 0 No. strains and the “No. strains −3 Log10 cfu/ml lower than 0 h” value (24 h, 0.25 × MIC) was 0 No. strains. For the same molecule, the “No. strains −1 Log10 cfu/ml lower than 0 h” value (24 h, 0.5 × MIC) was 1 No. strains, the “No. strains −2 Log10 cfu/ml lower than 0 h” value (24 h, 0.5 × MIC) was 1 No. strains and the “No. strains −3 Log10 cfu/ml lower than 0 h” value (24 h, 0.5 × MIC) was 0 No. strains. For the same molecule, the “No. strains −1 Log10 cfu/ml lower than 0 h” value (24 h, 2 × MIC) was 12 No. strains, the “No. strains −2 Log10 cfu/ml lower than 0 h” value (24 h, 2 × MIC) was 12 No. strains and the “No. strains −3 Log10 cfu/ml lower than 0 h” value (24 h, 2 × MIC) was 11 No. strains. For the same molecule, the “No. strains −1 Log10 cfu/ml lower than 0 h” value (24 h, 4 × MIC) was 12 No. strains, the “No. strains −2 Log10 cfu/ml lower than 0 h” value (24 h, 4 × MIC) was 12 No. strains and the “No. strains −3 Log10 cfu/ml lower than 0 h” value (24 h, 4 × MIC) was 12 No. strains. For the same molecule, the “No. strains −1 Log10 cfu/ml lower than 0 h” value (24 h, 8 × MIC) was 12 No. strains, the “No. strains −2 Log10 cfu/ml lower than 0 h” value (24 h, 8 × MIC) was 12 No. strains and the “No. strains −3 Log10 cfu/ml lower than 0 h” value (24 h, 8 × MIC) was 12 No. strains. The “No. strains −1 Log10 cfu/ml lower than 0 h” value (24 h, MIC) was 9 No. strains, the “No. strains −2 Log10 cfu/ml lower than 0 h” value (24 h, MIC) was 9 No. strains and the “No. strains −3 Log10 cfu/ml lower than 0 h” value (24 h, MIC) was 9 No. strains.
